For one assay, the target named is T1, Flag-YTHDF3 C474S (UniProt Q7Z739).
T1 sequence: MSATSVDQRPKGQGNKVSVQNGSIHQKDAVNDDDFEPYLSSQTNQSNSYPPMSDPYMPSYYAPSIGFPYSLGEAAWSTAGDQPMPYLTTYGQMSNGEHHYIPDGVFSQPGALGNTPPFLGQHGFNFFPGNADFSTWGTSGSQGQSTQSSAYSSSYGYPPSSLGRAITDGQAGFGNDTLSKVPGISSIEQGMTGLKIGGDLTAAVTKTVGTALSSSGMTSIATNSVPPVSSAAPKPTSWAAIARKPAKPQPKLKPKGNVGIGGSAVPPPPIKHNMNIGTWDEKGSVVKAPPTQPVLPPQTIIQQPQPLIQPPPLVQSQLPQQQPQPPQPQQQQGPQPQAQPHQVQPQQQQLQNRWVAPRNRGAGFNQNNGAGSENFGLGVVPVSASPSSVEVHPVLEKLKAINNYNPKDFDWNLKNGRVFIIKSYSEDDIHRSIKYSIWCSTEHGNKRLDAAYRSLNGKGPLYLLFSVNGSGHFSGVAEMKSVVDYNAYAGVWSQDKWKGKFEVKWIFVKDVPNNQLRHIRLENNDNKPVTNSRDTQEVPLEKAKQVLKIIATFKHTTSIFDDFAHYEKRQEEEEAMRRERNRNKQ
In words: affinity purification with mass spectrometry; Flag-YTHDF3 WT and C474S immunoprecipitates compared by LC-MS/MS; cells not given.

The chains behind the UniProt entries cited, without tags or fusion partners.
UniProt P11142: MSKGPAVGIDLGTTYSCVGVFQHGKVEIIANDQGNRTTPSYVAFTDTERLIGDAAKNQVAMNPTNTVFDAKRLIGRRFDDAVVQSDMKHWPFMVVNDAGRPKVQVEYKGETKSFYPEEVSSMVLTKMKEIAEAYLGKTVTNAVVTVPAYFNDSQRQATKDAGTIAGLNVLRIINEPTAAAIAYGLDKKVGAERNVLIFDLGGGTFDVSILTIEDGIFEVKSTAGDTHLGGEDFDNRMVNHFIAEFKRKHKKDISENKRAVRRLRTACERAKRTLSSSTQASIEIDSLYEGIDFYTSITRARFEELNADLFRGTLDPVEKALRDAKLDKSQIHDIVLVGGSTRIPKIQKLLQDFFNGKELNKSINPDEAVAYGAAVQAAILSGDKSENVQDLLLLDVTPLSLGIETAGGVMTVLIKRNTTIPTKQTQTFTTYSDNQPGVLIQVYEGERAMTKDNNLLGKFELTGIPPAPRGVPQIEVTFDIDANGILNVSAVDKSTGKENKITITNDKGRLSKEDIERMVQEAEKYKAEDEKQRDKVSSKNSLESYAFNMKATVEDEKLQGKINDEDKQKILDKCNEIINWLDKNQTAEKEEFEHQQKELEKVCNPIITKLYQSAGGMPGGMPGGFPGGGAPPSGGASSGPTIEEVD

The next assay addresses T2, Flag-ZDHHC20 (UniProt Q5W0Z9).
T2 sequence: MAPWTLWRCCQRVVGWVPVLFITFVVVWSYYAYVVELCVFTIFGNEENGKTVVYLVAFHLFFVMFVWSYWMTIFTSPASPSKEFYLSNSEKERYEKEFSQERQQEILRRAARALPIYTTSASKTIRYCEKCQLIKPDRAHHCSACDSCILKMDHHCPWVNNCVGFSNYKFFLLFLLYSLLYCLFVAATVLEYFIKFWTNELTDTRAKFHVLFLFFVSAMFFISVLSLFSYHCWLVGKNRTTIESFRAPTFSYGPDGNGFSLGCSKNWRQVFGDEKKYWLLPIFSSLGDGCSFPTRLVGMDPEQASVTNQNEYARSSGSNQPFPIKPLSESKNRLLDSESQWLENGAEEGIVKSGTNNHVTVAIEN
The experiment in a line: affinity purification with mass spectrometry; Flag-ZDHHC20 immunoprecipitated with Flag antibody from PANC-1 cells; beads digested with trypsin, LC-MS/MS.

No constants are given. Whether binding was seen depends on the method and setting. In cells and extracts the contact can be indirect. A yes stands for co-enrichment or nearness to the bait. Other partners may have been found. Where a sequence is shown, tags or fusion partners need not be part of it.

On to HSC70 (from UniProt P11142 1-646), for which the binding entry with Flag-YTHDF3 C474S is “binds”.

Turning to “YTH domain-containing family protein 3 (YTHDF3), endogenous (from UniProt Q7Z739 1-585)”, the binding result with Flag-ZDHHC20 was “binds”.

Values taken from PMC11143236.
